3 molecules from article PMC12666673 can be followed below.

Sequences of proteins named here, by UniProt entry; tags and fusion partners are left off.
UniProt P07355: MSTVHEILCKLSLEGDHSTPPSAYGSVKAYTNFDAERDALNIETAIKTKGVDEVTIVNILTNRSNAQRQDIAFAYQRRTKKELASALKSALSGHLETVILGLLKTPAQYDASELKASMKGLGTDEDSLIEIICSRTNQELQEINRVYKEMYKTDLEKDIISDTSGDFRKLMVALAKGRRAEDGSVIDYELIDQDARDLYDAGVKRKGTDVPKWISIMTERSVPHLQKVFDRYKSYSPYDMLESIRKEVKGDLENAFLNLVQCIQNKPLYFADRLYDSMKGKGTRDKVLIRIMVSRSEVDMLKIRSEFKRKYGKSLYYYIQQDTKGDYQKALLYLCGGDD

For experiment [1], the target named is T1, V-set and immunoglobulin domain containing 2 (VSIG2) (human (endogenous in AGS)) (UniProt Q96IQ7).
T1 sequence: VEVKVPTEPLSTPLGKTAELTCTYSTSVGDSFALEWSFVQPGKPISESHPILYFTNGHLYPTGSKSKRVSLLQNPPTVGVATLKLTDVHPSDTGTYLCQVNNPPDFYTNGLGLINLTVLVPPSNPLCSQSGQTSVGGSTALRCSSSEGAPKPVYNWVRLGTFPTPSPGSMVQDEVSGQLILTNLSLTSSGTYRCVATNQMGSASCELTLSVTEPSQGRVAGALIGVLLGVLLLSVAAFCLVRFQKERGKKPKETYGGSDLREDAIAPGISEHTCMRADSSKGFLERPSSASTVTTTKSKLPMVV
Nature of the experiment: co-IP; AGS cells, endogenous proteins, VSIG2 and ANXA2 antibodies; cells cross-linked with 2 mM DSP, lysed in 0.5% digitonin then 0.3% CHAPS, washes with 500 mM NaCl, western blot.

Experiment [2] has as its target ANXA2 (human (endogenous in AGS)) (UniProt P07355). Nature of the experiment: co-IP; FBXW10 with ANXA2 in GC cells with VSIG2 overexpressed or silenced, and in HGC27 cells transfected with increasing doses of VSIG2 plasmid.
Experiment [3] has the same target. Nature of the experiment: co-IP; gastric cancer cells, FBXW10 with ANXA2; cells cross-linked with 2 mM DSP, anti-ANXA2 magnetic beads, western blot.

No constants are given. Whether binding was seen depends on the method and setting. Binding seen in cells or lysates may run through a third protein. Some binding calls cover weakened binding; strength is not graded here.

With ANXA2 (from UniProt P07355 1-339), in experiment [1], the binding entry was “binds”.

B1: VSIG2, overexpressed from a plasmid (protein, UniProt Q96IQ7 24-327)
chain: T1 sequence
As for B1, in experiment [2], the binding entry is on record as “binds”.

B2: FBXW10 (protein, UniProt Q5XX13 1-1052)
chain: MENLESRLKNAPYFRCEKGTDSIPLCRKCETCVLAWKIFSTKEWFCRINDISQRRFLVGILKQLNSLYLLHYFQNILQTTQGKDFIYNRSRINLSKKEGKVVKSSLNQMLDKTVEQKMKEILYWFANSTQWTKANYTLLLLQMCNPKLLLTAANVIRVLFLREENNISGLNQDITDVCFSPEKDHSSKSATSQVYWTAKTQHTSLPLSKAPENEHLLGAASNPEEPWRNSLRCISEMNRLFSGKGDITKPGYDPCNLLVDLDDIRDLSSGFSKYRDFIRYLPIHLSKYILRMLDRHTLNKCASVSQHWAAMAQQVKMDLSAHGFIQNQITFLQGSYTRGIDPNYANKVSIPVPKMVDDGKSMRVKHPKWKLRTKNEYNLWTAYQNEETQQVLIEERNVFCGTYNVRILSDTWDQNRVIHYSGGDLIAVSSNRKIHLLDIIQVKAIPVEFRGHAGSVRALFLCEEENFLLSGSYDLSIRYWDLKSGVCTRIFGGHQGTITCMDLCKNRLVSGGRDCQVKVWDVDTGKCLKTFRHKDPILATRINDTYIVSSCERGLVKVWHIAMAQLVKTLSGHEGAVKCLFFDQWHLLSGSTDGLVMAWSMVGKYERCLMAFKHPKEVLDVSLLFLRVISACADGKIRIYNFLNGNCMKVLKANGRGDPVLSFFIQGNRMVVNTESNVLMFQFEHIKWQYAVEKTKQKKNKEKEEEKEENSLMEILSKCNIQVHSPRESVSSKQTVIQELLPGKPPKSRVLLKPAKFSSAVLIEELQSQGKSKSPRRDADDVEKAQKQGQLETPGKLPSHPKKKSWKIPMSPDQFLLTVSALQHAHNSGEFAYPCRPQTEITDVWGPSISYPRKVLNFKGKSIQRAVDRLRLSNPPIDVKRTSIPLEIQKLQPNLKISLHSPRVQSTIPQPMIIRSRFSGSLKGGDQVTSSIERAVCSTGPLTSMQVIKPNRMLAPQVGTATLSLKKERPRIYTALDPFRVNTEFVLLTVKEEKEHQEAKMKEYQARESTGVVDPGKVSKAAWIRKIKGLPIDNFTKQGKTAAPELGQNVFI
B2: the binding result in experiment [2] and in experiment [3] was “binds” throughout.
